Reference: paper PMC12034871

Chains of the proteins cited; added tags and fusions are not shown. Residues count along the entry.
UniProt P13671, residues 22-934: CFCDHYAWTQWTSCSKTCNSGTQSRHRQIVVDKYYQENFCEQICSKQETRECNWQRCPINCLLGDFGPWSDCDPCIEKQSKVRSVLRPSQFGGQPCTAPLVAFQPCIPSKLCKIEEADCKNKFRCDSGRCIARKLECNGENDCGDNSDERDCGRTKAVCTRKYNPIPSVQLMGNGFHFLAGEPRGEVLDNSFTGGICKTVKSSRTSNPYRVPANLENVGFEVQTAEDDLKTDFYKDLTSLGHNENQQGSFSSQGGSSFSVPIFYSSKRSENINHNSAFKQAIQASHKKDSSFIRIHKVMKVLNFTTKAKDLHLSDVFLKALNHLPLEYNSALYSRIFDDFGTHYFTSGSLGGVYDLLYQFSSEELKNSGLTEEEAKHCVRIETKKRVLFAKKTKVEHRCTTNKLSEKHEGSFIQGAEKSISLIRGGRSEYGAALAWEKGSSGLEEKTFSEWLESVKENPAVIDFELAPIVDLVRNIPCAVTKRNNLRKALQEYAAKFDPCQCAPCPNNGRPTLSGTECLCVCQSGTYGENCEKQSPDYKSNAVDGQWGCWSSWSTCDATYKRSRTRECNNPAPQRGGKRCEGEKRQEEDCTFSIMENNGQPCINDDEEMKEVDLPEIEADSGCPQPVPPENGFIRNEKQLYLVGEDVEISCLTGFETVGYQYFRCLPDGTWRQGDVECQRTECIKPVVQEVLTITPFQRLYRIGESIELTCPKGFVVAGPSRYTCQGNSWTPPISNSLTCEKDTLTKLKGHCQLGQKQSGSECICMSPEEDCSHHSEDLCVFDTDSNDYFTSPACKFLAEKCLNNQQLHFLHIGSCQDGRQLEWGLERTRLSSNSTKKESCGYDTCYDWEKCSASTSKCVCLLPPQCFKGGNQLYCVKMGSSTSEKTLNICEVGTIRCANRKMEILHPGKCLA
UniProt P10643, residues 23-843: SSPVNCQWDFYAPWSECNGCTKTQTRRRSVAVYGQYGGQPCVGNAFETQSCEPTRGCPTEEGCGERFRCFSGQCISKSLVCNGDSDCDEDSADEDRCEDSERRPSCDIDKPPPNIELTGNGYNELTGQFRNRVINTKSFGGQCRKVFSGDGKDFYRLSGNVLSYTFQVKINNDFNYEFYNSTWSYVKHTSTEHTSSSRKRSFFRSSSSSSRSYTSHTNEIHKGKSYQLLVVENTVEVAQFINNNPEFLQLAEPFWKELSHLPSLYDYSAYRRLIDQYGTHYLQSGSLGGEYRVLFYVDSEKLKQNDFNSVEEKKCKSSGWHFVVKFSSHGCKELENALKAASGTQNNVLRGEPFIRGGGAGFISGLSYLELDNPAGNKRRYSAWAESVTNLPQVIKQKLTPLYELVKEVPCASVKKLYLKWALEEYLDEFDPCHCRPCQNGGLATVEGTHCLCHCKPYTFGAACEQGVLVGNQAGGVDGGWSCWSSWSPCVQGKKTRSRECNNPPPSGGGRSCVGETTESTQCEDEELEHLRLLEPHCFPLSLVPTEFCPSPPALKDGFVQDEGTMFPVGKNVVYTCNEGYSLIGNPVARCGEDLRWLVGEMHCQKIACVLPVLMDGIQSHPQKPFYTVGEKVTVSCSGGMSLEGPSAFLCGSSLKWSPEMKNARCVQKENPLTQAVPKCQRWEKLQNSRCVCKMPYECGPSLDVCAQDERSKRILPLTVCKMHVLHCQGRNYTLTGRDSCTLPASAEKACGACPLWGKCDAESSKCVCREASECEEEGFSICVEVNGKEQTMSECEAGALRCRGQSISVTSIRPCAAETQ

Target: complement component C6 (human (endogenous in serum)) (UniProt P13671)
Test: affinity purification with mass spectrometry; control sera; in vitro complement activation, pull-down of C6 containing complexes using co-IP, then mass spectrometry

binding: binds
Substance: complement component C7 (from UniProt P10643 23-843)

Results are given in words; binding and its absence hold for the method and conditions named. In cells and extracts the contact can be indirect. Here binding means that the protein was enriched with, or labelled near, the bait; the list need not be complete.
